# Reference: US20230242616A1, “CHEMOKINE-SELECTIVE CXCR4 ECTODOMAIN-DERIVED (POLY)PEPTIDE” (Ludwig-Maximilians-Universität München, priority 2020, published 2023)
# By UniProt entry, the sequences of proteins in these tests, tags left out. Residues count along the entry.
# UniProt P48061, 22-93: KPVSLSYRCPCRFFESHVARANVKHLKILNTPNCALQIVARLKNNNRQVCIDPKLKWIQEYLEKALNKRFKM
# For at least one compound, name, drawing or mass did not settle the structure. Some compounds share one wording; it may come from a single statement.
# Target: T1, CXCL12 (Homo sapiens, UniProt P48061)
# T1 construct: purchased Peprotech (or a gift of Dr. von Hundelshausen, LMU Munich)
# Assay: Fluorescence spectroscopic titration, binding to CXCL12
# Description: Fluorescence spectroscopy. Fluorescence spectroscopic titrations were performed as described^28, 32. Fluorescence spectra were recorded using a JASCO FP-6500 fluorescence spectrophotometer. […] Apparent KD values (app. KD) were calculated assuming a 1/1 binding model^32.
row,SMILES,binding to CXCL12 (in words)
1,CC[C@H](C)[C@H](NC(=O)[C@H](Cc1ccc(O)cc1)NC(=O)[C@H](CCCNC(=N)N)NC(=O)[C@@H](N)CC(=O)O)C(=O)N[C@@H](CSSC[C@H](NC(=O)[C@H](CC(C)C)NC(=O)[C@H](Cc1ccccc1)NC(=O)[C@H](CC(N)=O)NC(=O)CNC(=O)[C@H](Cc1ccccc1)NC(=O)[C@H](Cc1ccc(O)cc1)NC(=O)[C@H](Cc1c[nH]c2ccccc12)NC(=O)[C@H](CC(N)=O)NC(=O)[C@H](C)NC(=O)[C@@H](NC(=O)[C@H](C)NC(=O)[C@@H](N)CC(=O)O)C(C)C)C(=O)N[C@@H](CCCCN)C(N)=O)C(=O)N[C@@H](CC(=O)O)C(=O)N[C@@H](CCCNC(=N)N)C(=O)N[C@@H](Cc1ccccc1)C(=O)N[C@@H](Cc1ccc(O)cc1)C(=O)N1CCC[C@H]1C(=O)N[C@@H](CC(N)=O)C(=O)N[C@@H](CC(=O)O)C(=O)N[C@@H](CC(C)C)C(=O)N[C@@H](Cc1c[nH]c2ccccc12)C(=O)N[C@H](C(N)=O)C(C)C [msR4M-LS],gain-of-CXCL12-binding activity
2,CC[C@H](C)[C@@H]1NC(=O)[C@H](Cc2ccc(O)cc2)NC(=O)[C@H](CCCNC(=N)N)NC(=O)[C@H](CC(=O)O)NC(=O)CCCCCCCCCCCNC(=O)COCCOCCNC(=O)[C@H](CCCCN)NC(=O)[C@@H](NC(=O)[C@H](CC(C)C)NC(=O)[C@H](Cc2ccccc2)NC(=O)[C@H](CC(N)=O)NC(=O)CNC(=O)[C@H](Cc2ccccc2)NC(=O)[C@H](Cc2ccc(O)cc2)NC(=O)[C@H](Cc2c[nH]c3ccccc23)NC(=O)[C@H](CC(N)=O)NC(=O)[C@H](C)NC(=O)[C@@H](NC(=O)[C@H](C)NC(=O)[C@@H](N)CC(=O)O)C(C)C)CSSC[C@@H](C(=O)N[C@@H](CC(=O)O)C(=O)N[C@@H](CCCNC(=N)N)C(=O)N[C@@H](Cc2ccccc2)C(=O)N[C@@H](Cc2ccc(O)cc2)C(=O)N2CCC[C@H]2C(=O)N[C@@H](CC(N)=O)C(=O)N[C@@H](CC(=O)O)C(=O)N[C@@H](CC(C)C)C(=O)N[C@@H](Cc2c[nH]c3ccccc23)C(=O)N[C@H](C(N)=O)C(C)C)NC1=O [msR4M-L2ox],gain-of-CXCL12-binding activity
3,CC[C@H](C)[C@@H]1NC(=O)[C@H](Cc2ccc(O)cc2)NC(=O)[C@H](CCCNC(=N)N)NC(=O)[C@H](CC(=O)O)NC(=O)CCCCCCCCCCCNC(=O)CCCCCNC(=O)[C@H](CCCCN)NC(=O)[C@@H](NC(=O)[C@H](CC(C)C)NC(=O)[C@H](Cc2ccccc2)NC(=O)[C@H](CC(N)=O)NC(=O)CNC(=O)[C@H](Cc2ccccc2)NC(=O)[C@H](Cc2ccc(O)cc2)NC(=O)[C@H](Cc2c[nH]c3ccccc23)NC(=O)[C@H](CC(N)=O)NC(=O)[C@H](C)NC(=O)[C@@H](NC(=O)[C@H](C)NC(=O)[C@@H](N)CC(=O)O)C(C)C)CSSC[C@@H](C(=O)N[C@@H](CC(=O)O)C(=O)N[C@@H](CCCNC(=N)N)C(=O)N[C@@H](Cc2ccccc2)C(=O)N[C@@H](Cc2ccc(O)cc2)C(=O)N2CCC[C@H]2C(=O)N[C@@H](CC(N)=O)C(=O)N[C@@H](CC(=O)O)C(=O)N[C@@H](CC(C)C)C(=O)N[C@@H](Cc2c[nH]c3ccccc23)C(=O)N[C@H](C(N)=O)C(C)C)NC1=O [msR4M-L1ox],gain-of-CXCL12-binding activity
